Our source for the binding values is paper PMC10499821.

Chains of the proteins cited; added tags and fusions are not shown. Lines headed by an entry give the natural chain unless they say otherwise; changes in a name come on top.
UniProt Q99466: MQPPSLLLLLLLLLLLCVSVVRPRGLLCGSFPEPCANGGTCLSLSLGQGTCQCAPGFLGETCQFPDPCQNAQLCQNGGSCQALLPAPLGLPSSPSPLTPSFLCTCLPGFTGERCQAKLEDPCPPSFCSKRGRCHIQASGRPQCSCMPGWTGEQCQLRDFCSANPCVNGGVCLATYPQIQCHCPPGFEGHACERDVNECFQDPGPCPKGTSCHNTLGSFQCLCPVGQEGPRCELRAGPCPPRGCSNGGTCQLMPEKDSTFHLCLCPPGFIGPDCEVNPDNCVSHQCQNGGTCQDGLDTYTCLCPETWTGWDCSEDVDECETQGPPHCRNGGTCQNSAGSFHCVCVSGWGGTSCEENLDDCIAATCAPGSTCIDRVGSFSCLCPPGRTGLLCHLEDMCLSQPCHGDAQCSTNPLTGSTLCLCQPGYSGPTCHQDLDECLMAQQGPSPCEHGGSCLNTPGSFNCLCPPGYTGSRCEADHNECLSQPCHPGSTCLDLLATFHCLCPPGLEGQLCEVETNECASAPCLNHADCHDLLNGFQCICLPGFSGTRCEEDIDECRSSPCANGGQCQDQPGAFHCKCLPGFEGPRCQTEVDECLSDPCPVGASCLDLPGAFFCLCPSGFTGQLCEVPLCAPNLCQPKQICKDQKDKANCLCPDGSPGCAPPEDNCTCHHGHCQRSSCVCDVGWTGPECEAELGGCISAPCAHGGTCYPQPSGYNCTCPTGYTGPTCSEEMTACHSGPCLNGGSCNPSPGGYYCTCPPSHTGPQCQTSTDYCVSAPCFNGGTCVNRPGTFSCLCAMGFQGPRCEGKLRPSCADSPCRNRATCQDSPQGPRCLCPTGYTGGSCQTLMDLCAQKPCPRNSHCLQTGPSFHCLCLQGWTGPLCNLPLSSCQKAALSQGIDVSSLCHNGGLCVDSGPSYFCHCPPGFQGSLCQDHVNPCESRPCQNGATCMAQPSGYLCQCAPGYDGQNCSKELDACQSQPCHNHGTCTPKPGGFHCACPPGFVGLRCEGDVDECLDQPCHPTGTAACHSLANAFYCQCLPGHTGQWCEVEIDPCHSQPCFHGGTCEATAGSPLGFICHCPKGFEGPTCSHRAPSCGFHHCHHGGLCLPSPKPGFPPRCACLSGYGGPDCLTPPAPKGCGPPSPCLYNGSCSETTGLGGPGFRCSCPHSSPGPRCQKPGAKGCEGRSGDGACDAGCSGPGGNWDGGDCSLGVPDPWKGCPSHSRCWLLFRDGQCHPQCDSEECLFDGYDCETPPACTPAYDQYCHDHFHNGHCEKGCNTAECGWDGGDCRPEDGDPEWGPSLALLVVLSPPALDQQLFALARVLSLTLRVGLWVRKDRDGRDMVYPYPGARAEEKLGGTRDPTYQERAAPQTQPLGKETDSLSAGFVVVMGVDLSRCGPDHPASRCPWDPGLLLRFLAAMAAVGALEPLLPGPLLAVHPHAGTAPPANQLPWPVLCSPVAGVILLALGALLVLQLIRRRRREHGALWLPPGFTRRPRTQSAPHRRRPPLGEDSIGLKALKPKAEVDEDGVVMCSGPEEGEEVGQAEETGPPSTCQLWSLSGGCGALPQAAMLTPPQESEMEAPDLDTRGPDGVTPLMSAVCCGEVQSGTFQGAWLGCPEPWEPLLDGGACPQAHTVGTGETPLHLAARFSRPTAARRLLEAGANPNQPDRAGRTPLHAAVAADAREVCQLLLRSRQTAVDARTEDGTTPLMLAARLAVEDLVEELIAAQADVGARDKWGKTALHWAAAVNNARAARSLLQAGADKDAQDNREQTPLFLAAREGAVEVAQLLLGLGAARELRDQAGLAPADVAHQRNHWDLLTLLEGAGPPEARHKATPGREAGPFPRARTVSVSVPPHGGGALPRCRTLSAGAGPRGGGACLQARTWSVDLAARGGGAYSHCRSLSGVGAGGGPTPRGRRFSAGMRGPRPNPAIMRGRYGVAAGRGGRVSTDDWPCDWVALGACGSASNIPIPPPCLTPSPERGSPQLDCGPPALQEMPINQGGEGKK

In the test the target is Nsp9 (SARS-CoV-2) (UniProt P0DTD1). Nature of the test: NMR titration; both purified.

These are yes or no findings as the source states them, for the method shown. Some binding calls cover weakened binding; strength is not graded here.

As for “NOTCH4_(1605–1620) (from UniProt Q99466 1605-1620) (peptide)”, the binding entry is listed as “binds”.
